Screen size: about 31,000 sequences; about 1,400 (4.5%) were called active.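 The calls were made as follows: active = median seed-adjusted z-score above 1 or below -1; inactive = the rest.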 The list shows a part of the results.
Assay: Novel Modifiers of Survival Motor Neuron (SMN) Protein: Gene Identification via Genome-wide siRNA Screen;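 also: luminescence tracks full-length SMN protein made from the SMN2 reporter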
Details: HEK293T SMN2-luciferase reporter, siRNA knockdown, 72 h; actives lie on both sides
Procedure, shortened: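 Genome-wide siRNA screen (10418 genes, 3 siRNAs each, 1 pmol per well) by reverse transfection in HEK293T cells stably carrying an SMN2-luciferase reporter; luminescence after 72 hours, normalized to negative-control siRNA, log10-transformed, MAD-scored.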
With GGAAAGCUCUUCGUCUGGATT against IFIT5 the median seed-adjusted z-score was inactive: 0.
For GGUACAAGGAUGAUACGGATT against ALPK3, the median seed-adjusted z-score was inactive: 0.365.
In the case of CAGCAUCACCAGUUCAUGUTT against ZNF526, the median seed-adjusted z-score is reported as inactive: 0.0265.
In the case of GAGCUAAAACGGAGCUUUUTT against MYC, the median seed-adjusted z-score is reported as inactive: -0.543.
In the case of CAAAGACCGUGAUUUAGCATT against BRDT, the median seed-adjusted z-score is reported as inactive: -0.357.
With ACACUCAACUACUGCGUAUTT against TSPO the median seed-adjusted z-score was inactive: -0.206.
In the case of GAAGGUAAAGAGCUAGAAATT against CALB2, the median seed-adjusted z-score is reported as inactive: 0.
With GUACCUUGCUUACAUAAAUTT against SMARCE1 the median seed-adjusted z-score was inactive: 0.
In the case of GAUGCUUCCUGGAACCCUUTT against RAD54L2, the median seed-adjusted z-score is reported as inactive: -0.0646.
In the case of GCAUCUCCAUGUAGAAUAATT against FGF1, the median seed-adjusted z-score is reported as inactive: 0.415.
With AGAUAACAGCAUGGAUUUATT against MMD the median seed-adjusted z-score was inactive: 0.193.
For GACUUCUGCUGAUACUUUUTT against GPR156, the median seed-adjusted z-score was inactive: 0.
With GAGCUUCGAUUCAAUAAAATT against SLC5A6 the median seed-adjusted z-score was inactive: 0.994.
With GCUCCACCCUGUACACUAATT against LMO3 the median seed-adjusted z-score was inactive: 0.496.
With AGAAAGACCUUUUAAUCUATT against SNTB1 the median seed-adjusted z-score was inactive: 0.488.
With GUGCUAAAAUCUUCGGUAATT against PCDHB12 the median seed-adjusted z-score was inactive: -0.0664.
In the case of GAAGCCGACCAGAAUGAUATT against ITPK1, the median seed-adjusted z-score is reported as inactive: 0.0575.
With GCUACGAUGUGGAAACAGATT against KEAP1 the median seed-adjusted z-score was inactive: 0.207.
For CGAGUUACUUUUCAGCUAATT against MYH4, the median seed-adjusted z-score was active: -1.8.
For CUACCUGGGUUACUAAACATT against HNRNPU, the median seed-adjusted z-score was inactive: 0.431.
In the case of CAAUCGCAGAGAAGCUGAATT against KRT40, the median seed-adjusted z-score is reported as inactive: -0.324.
In the case of GCAACAAGUUCACCCAGAATT against CHST11, the median seed-adjusted z-score is reported as inactive: -0.275.
In the case of AGCUGUUGAUAGUAUUGAATT against TSNARE1, the median seed-adjusted z-score is reported as inactive: -0.0516.
With GAAUCCGAGUUAACAGUAATT against SLC4A1AP the median seed-adjusted z-score was inactive: -0.0117.
In the case of CCUCAACUAUCAGAACAAUTT against KLF10, the median seed-adjusted z-score is reported as inactive: 0.616.
For GCUUGUAACUUUCAACUAATT against ZNF781, the median seed-adjusted z-score was inactive: 0.0307.
With GUUCCUACGUGUACAACGATT against DNASE1L1 the median seed-adjusted z-score was inactive: 0.542.
In the case of GCAUCGAAUUUAUCCGCAATT against ZKSCAN2, the median seed-adjusted z-score is reported as inactive: -0.0343.
With GGAGAUACAUCACCGAGAATT against ELMO3 the median seed-adjusted z-score was inactive: -0.0898.
For GGAAUGACCUUAAAUGAGATT against UBE2W, the median seed-adjusted z-score was inactive: -0.655.
